Results taken from the supplement of paper PMC7646827.
“And” between values parts separate entries of the source, which are not always exact repeats. Identical values can stand only once. Repeats are few or missing, and single values can be far off.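 All cells are established human bladder cancer lines, one of them grown from a patient-derived xenograft. Viability was read by a luminescent ATP assay as percent inhibition versus vehicle over a seven-point dilution series; the paper calls scores above 59 very active, 30–59 active, 21–29 semi-active, 9–20 low active and below 9 inactive.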

Assays:
Experiment in all cases: drug sensitivity score DSS3 (score 0-100); higher = more sensitive; extreme values may be limits of the assay
Settings in all cases: culture: 3D, ultra-low attachment; treatment time: 5 days
[1] = tested on: UM-UC-1
[2] = tested on: 5637
[3] = tested on: SW780
[4] = tested on: UM-UC-15
[5] = tested on: J82
[6] = tested on: UM-UC-5
[7] = tested on: SCaBER
[8] = tested on: T-24
[9] = tested on: UM-UC-9
[10] = tested on: UM-UC-17
[11] = tested on: TCCSUP
[12] = tested on: UM-UC-3
[13] = tested on: UM-UC-14
[14] = tested on: UM-UC-18
[15] = tested on: UM-UC-12
[16] = tested on: UM-UC-6
[17] = tested on: BC8149

SMILES | drug sensitivity score DSS3 [1] | drug sensitivity score DSS3 [2] | drug sensitivity score DSS3 [3] | drug sensitivity score DSS3 [4] | drug sensitivity score DSS3 [5] | drug sensitivity score DSS3 [6] | drug sensitivity score DSS3 [7] | drug sensitivity score DSS3 [8] | drug sensitivity score DSS3 [9] | drug sensitivity score DSS3 [10] | drug sensitivity score DSS3 [11] | drug sensitivity score DSS3 [12] | drug sensitivity score DSS3 [13] | drug sensitivity score DSS3 [14] | drug sensitivity score DSS3 [15] | drug sensitivity score DSS3 [16] | drug sensitivity score DSS3 [17]
CC1=C(C(=O)Nc2cc3cn[nH]c3cc2F)C(c2ccc(C(F)(F)F)cc2)CC(=O)N1 (stereo not given) (max dose 10000 nM) | 46.5 | 10.6 | 0 | 0 | 22 | 11.5 | 0 | 0 | 12.3 | 3.42 | 6.29 | 22.5 |  |  |  |  | 
CCOC(=O)NCCCC(=O)NCCc1ccccc1 (max dose 10000 nM) | 0 | 19.3 | 1.82 | 16.1 | 0 | 0 | 5.74 | 0 | 0 | 12.9 | 4.85 | 0 | 0 | 3.47 | 0 | 0 | 
CS(=O)(=O)c1cccc(CNc2nc(Nc3ccc4c(c3)CCC(=O)N4)ncc2C(F)(F)F)c1 (max dose 10000 nM) | 0.305 | 0 | 0.0177 | 0 | 0 | 0 |  | 9.78 | 0 | 0 | 4.23 | 0 | 1.43 | 0.00633 | 1.28 | 0 | 0
Cc1cnc(NC(=O)Nc2cc(Br)c(C)cc2OC[C@@H]2CNCCO2)cn1 (max dose 10000 nM) |  |  | 0 | 0 | 0 |  | 0 | 0 | 0 |  | 18.2 and 7.14 | 2.72 |  | 5.65 and 3.04 |  |  | 
Nc1nc(NCCc2ccc(O)cc2)nc2nc(-c3ccco3)nn12 (max dose 10000 nM) | 0 | 0 | 0.00146 | 0 | 0 | 0 | 0.1 | 0 | 0 | 0 | 0 | 0.0642 | 0 |  | 0 | 1.38 | 
O=C(O)c1ccc(-c2c[nH]c3ncc(-c4ccccc4)cc23)cc1C1CCCC1 (max dose 10000 nM) | 4.77 | 12.5 |  |  |  | 0 | 0 | 0 | 12.1 | 0 | 6.46 | 0 | 4.01 | 0 | 0 | 10.5 | 0
O=C(c1cc(Cc2n[nH]c(=O)c3ccccc23)ccc1F)N1CCN(C(=O)C2CC2)CC1 (max dose 10000 nM) | 0 | 0 | 0 | 0 | 0 | 0 | 0.0186 | 0 | 0 | 0 | 1.4 | 0 | 0 | 0 | 0 | 0 | 
O=c1[nH]cc(F)c(=O)[nH]1 [5-FU, Fluorouracil (5-Fluoracil, 5-FU)] (max dose 10000 nM) | 5.37 | 6.45 | 3.77 | 10.7 | 2.19 | 0 |  | 1.59 | 4.33 | 14.6 | 18 | 11 | 15.2 | 30.1 | 2.53 | 2.76 | 7.47
COc1ccc2c(Oc3ccc(NC(=O)c4c(C)n(CC(C)(C)O)n(-c5ccccc5)c4=O)nc3)ccnc2c1 [AMG-458] (max dose 10000 nM) | 0 | 0 | 0 | 0 | 0 | 0 | 0 | 0 | 0 | 0.0479 | 0.0429 | 0.358 | 0 | 1.4 | 0 | 0 | 
CC(=O)N1CCN(CCOc2ccc(C3CCN(C4=Nn5c(nnc5C(F)(F)F)CC4)CC3)cc2)CC1 [AZD3514] (max dose 10000 nM) | 0.694 | 6.41 | 0.0197 | 0 | 0 | 0 |  | 0 | 2.24 | 0.853 | 0.976 | 1.12 | 1.54 | 0 | 0 | 0 | 0.166
CCN(CC)CC(O)CNc1ccc(NCC2CO2)c2c1C(=O)c1ccccc1C2=O (stereo not given) [BDA-366] (max dose 10000 nM) | 37.5 | 42.7 |  | 0 |  | 3.93 | 28.4 | 10.5 | 25.9 | 12 | 10.8 | 51 | 8.4 | 28.7 | 25.3 | 26.4 | 
